Data reported in US20140221340A1 (KYOWA HAKKO KIRIN CO., LTD., priority 2011, published 2014).
Some results were stated once for a whole list of compounds, not compound by compound. At least one compound was matched to its structure with a doubt left.

Target: T1, human CCR10 (Homo sapiens, UniProt P46092)
T1 construct: expressed in transfected cells; host or cells: KJMGER8 cell (cell line derived from Namalwa cell); expression induced with 10 nmol/L β-estradiol
T1 sequence (P46092 1-362): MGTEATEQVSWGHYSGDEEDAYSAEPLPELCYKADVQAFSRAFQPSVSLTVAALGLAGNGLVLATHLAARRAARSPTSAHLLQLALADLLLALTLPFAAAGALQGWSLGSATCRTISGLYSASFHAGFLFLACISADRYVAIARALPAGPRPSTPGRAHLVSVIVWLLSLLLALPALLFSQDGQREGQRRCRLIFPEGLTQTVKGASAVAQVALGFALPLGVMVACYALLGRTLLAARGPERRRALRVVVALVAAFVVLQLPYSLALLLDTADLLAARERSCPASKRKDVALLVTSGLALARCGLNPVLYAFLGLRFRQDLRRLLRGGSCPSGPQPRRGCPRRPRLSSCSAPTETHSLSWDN
Experiment: Calcium assay of human CCR10 (inhibition of CTACK-induced increase in intracellular calcium ion concentration in hCCR10G16 cells)
Format: cell-based
Settings: at a concentration of 100 nmol/L; human recombinant CTACK
Method: A CCR10-inducible expression plasmid was produced according to a known method (“Analytical Biochemistry”, 2006, vol. 400, page 163). A DNA encoding human CCR10 was obtained by PCR. Using human chromosomal DNA (100 ng; manufactured by Clontech Laboratories, Inc.) as a template, a synthetic DNA having the sequences shown by SEQ ID NOs: 1 and 2 as a human CCR10 cDNA specific primer, and Pyrobest DNA Polymerase (manufactured by TAKARA SHUZO CO. LTD.) as an enzyme, a DNA encoding human CCR10 was obtained by PCR. As a buffer solution for PCR, the buffer solution attached to the enzyme was diluted 10-fold with deionized water and used. Using Thermal Cycler DNA Engine (manufactured by MJ Research), PCR was performed by 35 cycles of reactions composed of an incubation at 90° C. for 2 min, at 94° C. for 30 seconds, at an anneal temperature of 58° C. for 30 seconds, and at 72° C. for 1 min. […]
Using a primer specific to the sequence of the plasmid (synthetic DNA having the sequences shown by SEQ ID NOs: 3 and 4), the sequence of human CCR10 DNA region was determined. For the determination of the base sequence, DNA sequencer 377 (manufactured by PerkinElmer) and a reaction kit (ABI Prism (registered trade mark) BigDye (registered trade mark) Terminator Cycle Sequencing Ready Reaction kit: manufactured by Applied Biosystems) were used. […]

SMILES	antagonistic effect against CCR10
Cc1cc(Cl)ccc1Nc1c(C(=O)N2CCC3(CC2)OCc2ccccc23)cnc2c(S(=O)(=O)NC(=O)C3CC3)cnn12 [a-46]	showed an antagonistic effect against CCR10
Cc1ccc(F)c(Nc2c(C(=O)N3CCC4(CC3)OCc3ccccc34)cnc3c(S(=O)(=O)NC(=O)C4CC4)cnn23)c1 [a-52]	showed an antagonistic effect against CCR10
